Laboratory results: paper PMC5349851
The list shows a part of the results, in another mix than the full data. At the low end of the ranking the order means little. The list shows a part of the results.

Each sequence was assayed on T1, JUNB + FOSL1 (assay: SELEX-seq (CSI, HT-SELEX, round 3)). Details: SELEX-seq: 1x PBS (10 mM phosphate, 137 mM NaCl, 2.7 mM KCl) pH 7.6, 2.5 mM DTT, 50 ng/ul poly dI-dC, 0.1% BSA, 50 nM biotinylated bZIP (1:3 with partner for …); high values mean tight binding; double strand, one strand shown.
T1 sequence 1: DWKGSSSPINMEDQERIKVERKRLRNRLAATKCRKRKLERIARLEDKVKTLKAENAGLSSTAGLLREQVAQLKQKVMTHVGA
T1 sequence 2: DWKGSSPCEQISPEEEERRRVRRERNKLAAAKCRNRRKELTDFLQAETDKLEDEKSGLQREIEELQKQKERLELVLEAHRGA
Sequence ATGACGGAAT has a binding signal (relative CSI intensity (max = 1)) of -0.000632. CCTGACGTCA gave a binding signal (relative CSI intensity (max = 1)) of 0.00464. In the case of ATGATGCAAT, the binding signal (relative CSI intensity (max = 1)) is reported as -0.000254.

The sequences below were run on JUNB + FOS (assay: SELEX-seq (CSI, HT-SELEX, round 3)). Details: SELEX-seq: 1x PBS (10 mM phosphate, 137 mM NaCl, 2.7 mM KCl) pH 7.6, 2.5 mM DTT, 50 ng/ul poly dI-dC, 0.1% BSA, 50 nM biotinylated bZIP (1:3 with partner for …); high values mean tight binding; double strand, one strand shown.
Work on ATGACGGAAT yielded a binding signal (relative CSI intensity (max = 1)) of 0.00021. ATGATGCAAT gave a binding signal (relative CSI intensity (max = 1)) of 0.000119. For ATGACGTAAT, the binding signal (relative CSI intensity (max = 1)) was 0.00946.

Each sequence was assayed on T2, BATF + CEBPE (assay: SELEX-seq (CSI, HT-SELEX, round 3)). Details: SELEX-seq: 1x PBS (10 mM phosphate, 137 mM NaCl, 2.7 mM KCl) pH 7.6, 2.5 mM DTT, 50 ng/ul poly dI-dC, 0.1% BSA, 50 nM biotinylated bZIP (1:3 with partner for …); high values mean tight binding; double strand, one strand shown.
T2 sequence 1: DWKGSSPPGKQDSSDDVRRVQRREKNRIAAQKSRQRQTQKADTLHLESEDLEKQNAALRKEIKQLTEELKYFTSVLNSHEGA
T2 sequence 2: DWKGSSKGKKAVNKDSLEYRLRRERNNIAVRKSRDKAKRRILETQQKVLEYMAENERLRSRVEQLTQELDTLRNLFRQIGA
Sequence ATGACGGAAT has a binding signal (relative CSI intensity (max = 1)) of -0.00011. CCTGACGTCA gave a binding signal (relative CSI intensity (max = 1)) of 0.000589. ATGATGCAAT showed a binding signal (relative CSI intensity (max = 1)) of 0.000928. Sequence ATGACGTAAT has a binding signal (relative CSI intensity (max = 1)) of 0.000865.
